Experimental data as given in article PMC6836474.
No constants are given. Whether binding was seen depends on the method and setting. Binding seen in cells or lysates may run through a third protein. Some entries that bind do so weakly or less than the wild type.

Amino acid sequences for entries named in this document (tags omitted). Residues count along the entry.
UniProt P46531, residues 19-2555: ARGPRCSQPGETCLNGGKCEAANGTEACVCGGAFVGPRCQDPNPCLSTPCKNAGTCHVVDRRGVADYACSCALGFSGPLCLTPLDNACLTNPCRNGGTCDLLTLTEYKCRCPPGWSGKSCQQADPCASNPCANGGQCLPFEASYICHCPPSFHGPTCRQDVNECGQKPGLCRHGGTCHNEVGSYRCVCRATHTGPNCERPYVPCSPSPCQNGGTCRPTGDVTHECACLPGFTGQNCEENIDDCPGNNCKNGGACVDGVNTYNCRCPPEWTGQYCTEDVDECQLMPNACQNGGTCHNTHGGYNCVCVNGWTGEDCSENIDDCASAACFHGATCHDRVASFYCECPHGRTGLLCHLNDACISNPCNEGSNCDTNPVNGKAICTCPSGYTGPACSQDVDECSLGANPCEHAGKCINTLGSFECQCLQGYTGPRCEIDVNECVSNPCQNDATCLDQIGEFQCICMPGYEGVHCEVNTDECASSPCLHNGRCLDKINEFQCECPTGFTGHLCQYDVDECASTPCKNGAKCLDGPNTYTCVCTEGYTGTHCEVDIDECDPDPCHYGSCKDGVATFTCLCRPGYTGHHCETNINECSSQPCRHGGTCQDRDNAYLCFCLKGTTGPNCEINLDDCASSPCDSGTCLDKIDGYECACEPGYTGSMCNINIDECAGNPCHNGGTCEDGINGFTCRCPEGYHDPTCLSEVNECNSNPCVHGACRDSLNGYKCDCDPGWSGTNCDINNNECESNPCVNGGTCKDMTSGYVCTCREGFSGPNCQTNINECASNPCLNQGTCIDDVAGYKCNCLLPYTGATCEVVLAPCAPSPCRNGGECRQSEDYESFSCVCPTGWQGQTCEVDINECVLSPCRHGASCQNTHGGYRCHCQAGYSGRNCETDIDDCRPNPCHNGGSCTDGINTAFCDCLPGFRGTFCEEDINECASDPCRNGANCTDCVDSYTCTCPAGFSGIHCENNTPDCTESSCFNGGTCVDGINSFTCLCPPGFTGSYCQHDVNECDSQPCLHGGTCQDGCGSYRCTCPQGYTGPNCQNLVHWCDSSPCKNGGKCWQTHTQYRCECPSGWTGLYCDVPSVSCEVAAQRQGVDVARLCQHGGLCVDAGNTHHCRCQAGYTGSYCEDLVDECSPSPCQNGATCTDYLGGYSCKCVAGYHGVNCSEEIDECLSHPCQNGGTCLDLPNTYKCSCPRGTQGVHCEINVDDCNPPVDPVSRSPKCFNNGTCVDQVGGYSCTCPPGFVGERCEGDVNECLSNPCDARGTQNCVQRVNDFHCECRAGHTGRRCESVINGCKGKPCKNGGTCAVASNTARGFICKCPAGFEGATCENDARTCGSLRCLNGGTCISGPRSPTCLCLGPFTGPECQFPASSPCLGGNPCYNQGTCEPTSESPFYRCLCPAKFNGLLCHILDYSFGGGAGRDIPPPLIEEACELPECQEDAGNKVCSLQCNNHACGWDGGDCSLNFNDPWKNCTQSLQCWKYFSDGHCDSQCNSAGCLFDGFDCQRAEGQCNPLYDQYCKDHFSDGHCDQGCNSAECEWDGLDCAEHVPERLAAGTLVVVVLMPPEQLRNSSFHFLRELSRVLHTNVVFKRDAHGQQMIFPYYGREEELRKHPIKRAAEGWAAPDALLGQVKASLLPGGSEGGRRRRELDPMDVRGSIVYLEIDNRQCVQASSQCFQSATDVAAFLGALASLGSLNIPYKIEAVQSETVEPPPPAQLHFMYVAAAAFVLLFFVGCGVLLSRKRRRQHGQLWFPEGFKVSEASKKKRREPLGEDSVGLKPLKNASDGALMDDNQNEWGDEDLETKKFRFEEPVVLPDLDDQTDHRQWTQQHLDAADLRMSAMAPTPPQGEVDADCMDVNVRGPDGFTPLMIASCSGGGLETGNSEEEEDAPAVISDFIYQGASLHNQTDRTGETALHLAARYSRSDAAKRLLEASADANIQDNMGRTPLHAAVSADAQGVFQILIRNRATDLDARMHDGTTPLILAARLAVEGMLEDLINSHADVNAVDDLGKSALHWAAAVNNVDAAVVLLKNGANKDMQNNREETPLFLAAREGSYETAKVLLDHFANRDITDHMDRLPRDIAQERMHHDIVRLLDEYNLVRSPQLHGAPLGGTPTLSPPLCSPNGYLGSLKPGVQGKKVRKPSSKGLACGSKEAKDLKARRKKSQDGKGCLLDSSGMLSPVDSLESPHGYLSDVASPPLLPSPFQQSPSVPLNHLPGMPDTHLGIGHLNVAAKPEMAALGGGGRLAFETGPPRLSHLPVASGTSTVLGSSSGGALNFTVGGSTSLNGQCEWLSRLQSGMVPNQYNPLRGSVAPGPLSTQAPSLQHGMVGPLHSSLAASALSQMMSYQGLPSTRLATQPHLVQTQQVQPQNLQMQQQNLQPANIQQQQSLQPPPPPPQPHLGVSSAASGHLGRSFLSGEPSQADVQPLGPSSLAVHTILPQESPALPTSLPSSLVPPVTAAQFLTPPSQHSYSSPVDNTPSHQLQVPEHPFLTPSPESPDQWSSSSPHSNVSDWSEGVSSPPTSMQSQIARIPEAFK
UniProt P78504, residues 34-1218: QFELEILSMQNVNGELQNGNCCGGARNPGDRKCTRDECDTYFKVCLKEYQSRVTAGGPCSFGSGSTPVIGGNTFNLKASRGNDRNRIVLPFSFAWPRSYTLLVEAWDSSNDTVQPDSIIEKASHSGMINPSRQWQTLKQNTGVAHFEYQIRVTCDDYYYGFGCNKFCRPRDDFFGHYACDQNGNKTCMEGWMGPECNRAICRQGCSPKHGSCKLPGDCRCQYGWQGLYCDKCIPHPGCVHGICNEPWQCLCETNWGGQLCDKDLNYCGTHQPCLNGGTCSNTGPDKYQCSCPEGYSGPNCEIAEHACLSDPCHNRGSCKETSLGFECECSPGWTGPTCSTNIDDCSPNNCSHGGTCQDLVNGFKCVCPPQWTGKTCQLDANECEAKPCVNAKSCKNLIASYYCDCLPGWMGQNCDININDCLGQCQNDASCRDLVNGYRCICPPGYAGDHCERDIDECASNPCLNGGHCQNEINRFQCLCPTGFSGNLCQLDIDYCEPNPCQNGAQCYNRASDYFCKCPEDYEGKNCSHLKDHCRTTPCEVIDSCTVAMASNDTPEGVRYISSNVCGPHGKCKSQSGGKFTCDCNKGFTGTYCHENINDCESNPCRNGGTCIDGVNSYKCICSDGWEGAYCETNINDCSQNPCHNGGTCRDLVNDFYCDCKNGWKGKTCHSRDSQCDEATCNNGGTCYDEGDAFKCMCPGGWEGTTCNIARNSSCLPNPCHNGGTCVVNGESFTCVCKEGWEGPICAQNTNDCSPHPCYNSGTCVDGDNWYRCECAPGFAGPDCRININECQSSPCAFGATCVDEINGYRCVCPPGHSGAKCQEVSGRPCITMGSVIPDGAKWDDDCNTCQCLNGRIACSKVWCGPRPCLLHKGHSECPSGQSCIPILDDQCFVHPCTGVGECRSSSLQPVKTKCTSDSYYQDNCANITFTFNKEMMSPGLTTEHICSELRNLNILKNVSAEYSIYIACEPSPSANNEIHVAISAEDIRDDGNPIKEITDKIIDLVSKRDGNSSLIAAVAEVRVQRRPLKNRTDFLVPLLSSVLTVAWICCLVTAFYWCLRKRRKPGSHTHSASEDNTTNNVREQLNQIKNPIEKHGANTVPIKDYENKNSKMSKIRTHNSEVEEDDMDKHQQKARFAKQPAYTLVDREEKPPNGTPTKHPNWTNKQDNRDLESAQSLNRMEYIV

Target: Notch1 (UniProt P46531)
Test: co-IP; cells in 10-cm dishes transfected with 10 μg corresponding plasmids, harvested in PBS containing 1% NP40; Western blot; which partner was precipitated is not stated

binding: binds
Substance: JAG1 (from UniProt P78504 34-1218) (ligand)
